Only a part is listed here, and it is no random draw. Calls are pooled over several reports, among them a noisy single-well screen.
How the values were obtained:
Settings in all cases: stereoisomer not certain
UniProt Q8VGH1 = target: T1, UniProt Q8VGH1
T1 sequence (whole entry): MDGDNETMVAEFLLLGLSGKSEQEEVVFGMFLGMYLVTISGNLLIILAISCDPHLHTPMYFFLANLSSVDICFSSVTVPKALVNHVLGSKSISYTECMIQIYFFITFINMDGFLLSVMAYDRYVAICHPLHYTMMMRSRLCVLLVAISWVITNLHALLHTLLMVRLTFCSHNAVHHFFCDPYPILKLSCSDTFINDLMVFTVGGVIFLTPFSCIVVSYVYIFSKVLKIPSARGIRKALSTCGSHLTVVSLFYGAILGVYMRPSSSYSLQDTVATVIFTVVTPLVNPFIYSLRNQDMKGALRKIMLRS
How it was run: (§1)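 Whether a receptor–molecule pair is responsive (active) rests on the original authors' judgment that its measured signal was statistically different from baseline. Pairs without that judgment are non-responsive (inactive). Sources used varied assay methods, commonly transient luciferase assays in mammalian cell lines.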

UniProt Q8VGJ1 = target: T2, UniProt Q8VGJ1
T2 sequence (whole entry): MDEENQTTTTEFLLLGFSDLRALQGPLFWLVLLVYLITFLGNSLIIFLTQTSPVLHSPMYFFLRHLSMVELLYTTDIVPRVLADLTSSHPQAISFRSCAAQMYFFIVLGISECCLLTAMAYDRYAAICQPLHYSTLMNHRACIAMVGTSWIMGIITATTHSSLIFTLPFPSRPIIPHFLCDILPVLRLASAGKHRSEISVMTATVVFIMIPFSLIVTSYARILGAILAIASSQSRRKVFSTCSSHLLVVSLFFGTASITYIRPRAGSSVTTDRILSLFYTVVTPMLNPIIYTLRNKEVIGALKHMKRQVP
How it was run: as §1

UniProt Q8VGJ3 = target: T3, UniProt Q8VGJ3
T3 sequence (whole entry): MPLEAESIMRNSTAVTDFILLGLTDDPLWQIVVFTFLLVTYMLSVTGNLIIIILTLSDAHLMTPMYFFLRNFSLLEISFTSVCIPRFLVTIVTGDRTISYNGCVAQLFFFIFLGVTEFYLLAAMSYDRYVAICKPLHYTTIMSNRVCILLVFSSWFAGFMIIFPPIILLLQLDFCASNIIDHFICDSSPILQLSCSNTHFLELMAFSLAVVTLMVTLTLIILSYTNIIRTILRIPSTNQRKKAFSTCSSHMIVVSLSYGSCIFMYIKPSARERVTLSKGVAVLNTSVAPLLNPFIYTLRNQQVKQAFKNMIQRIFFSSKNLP
How it was run: as §1

UniProt Q8VGJ5 = target: T4, UniProt Q8VGJ5
T4 sequence (whole entry): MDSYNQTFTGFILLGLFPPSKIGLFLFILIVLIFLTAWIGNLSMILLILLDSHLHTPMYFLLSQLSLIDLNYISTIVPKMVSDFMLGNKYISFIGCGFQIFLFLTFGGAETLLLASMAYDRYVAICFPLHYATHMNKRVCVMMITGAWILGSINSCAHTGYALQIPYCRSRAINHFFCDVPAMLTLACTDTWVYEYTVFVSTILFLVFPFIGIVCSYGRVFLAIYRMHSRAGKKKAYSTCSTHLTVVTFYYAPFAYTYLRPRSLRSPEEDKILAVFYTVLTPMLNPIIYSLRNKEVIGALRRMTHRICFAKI
How it was run: as §1

UniProt Q8VGL0 = target: T5, UniProt Q8VGL0
T5 sequence (whole entry): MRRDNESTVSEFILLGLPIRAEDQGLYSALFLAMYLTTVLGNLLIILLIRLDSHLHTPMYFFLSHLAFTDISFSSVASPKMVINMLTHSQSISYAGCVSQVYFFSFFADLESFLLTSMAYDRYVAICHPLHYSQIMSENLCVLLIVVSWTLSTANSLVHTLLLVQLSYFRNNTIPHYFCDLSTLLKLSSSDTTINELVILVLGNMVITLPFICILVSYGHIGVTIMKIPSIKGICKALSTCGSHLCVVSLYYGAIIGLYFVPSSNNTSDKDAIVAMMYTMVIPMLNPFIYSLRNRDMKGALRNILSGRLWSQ
How it was run: as §1

UniProt Q8VGL7 = target: T6, UniProt Q8VGL7
T6 sequence (whole entry): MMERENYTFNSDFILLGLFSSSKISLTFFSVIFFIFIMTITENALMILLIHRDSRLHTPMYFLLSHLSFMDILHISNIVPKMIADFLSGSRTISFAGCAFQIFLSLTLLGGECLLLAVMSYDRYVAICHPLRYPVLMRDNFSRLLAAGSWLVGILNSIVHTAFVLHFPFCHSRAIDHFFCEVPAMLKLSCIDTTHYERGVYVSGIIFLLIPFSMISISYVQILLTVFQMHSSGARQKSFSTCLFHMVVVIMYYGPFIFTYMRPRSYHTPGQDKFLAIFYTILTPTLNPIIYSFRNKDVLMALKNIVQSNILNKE
How it was run: as §1

UniProt Q8VGM2 = target: T7, UniProt Q8VGM2
T7 sequence (whole entry): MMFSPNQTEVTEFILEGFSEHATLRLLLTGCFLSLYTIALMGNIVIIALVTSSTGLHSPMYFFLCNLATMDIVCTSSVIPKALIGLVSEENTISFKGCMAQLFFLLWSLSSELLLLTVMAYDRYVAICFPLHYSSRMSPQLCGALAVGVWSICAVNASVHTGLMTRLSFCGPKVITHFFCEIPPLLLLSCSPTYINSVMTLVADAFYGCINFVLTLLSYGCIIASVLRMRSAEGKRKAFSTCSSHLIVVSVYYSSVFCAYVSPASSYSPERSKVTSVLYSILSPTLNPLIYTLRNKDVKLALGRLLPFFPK
How it was run: as §1

UniProt Q8VGP6 = target: T8, UniProt Q8VGP6
T8 sequence (whole entry): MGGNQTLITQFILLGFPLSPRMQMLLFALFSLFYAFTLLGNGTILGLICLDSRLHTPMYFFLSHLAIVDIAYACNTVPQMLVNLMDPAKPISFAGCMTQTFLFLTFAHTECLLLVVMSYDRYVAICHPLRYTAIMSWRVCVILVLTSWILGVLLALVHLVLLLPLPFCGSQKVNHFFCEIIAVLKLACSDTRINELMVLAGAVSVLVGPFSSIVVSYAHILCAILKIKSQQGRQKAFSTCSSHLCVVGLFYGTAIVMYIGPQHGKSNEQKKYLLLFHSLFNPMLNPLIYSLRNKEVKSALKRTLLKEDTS
How it was run: as §1

UniProt Q8VGQ3 = target: T9, UniProt Q8VGQ3
T9 sequence (whole entry): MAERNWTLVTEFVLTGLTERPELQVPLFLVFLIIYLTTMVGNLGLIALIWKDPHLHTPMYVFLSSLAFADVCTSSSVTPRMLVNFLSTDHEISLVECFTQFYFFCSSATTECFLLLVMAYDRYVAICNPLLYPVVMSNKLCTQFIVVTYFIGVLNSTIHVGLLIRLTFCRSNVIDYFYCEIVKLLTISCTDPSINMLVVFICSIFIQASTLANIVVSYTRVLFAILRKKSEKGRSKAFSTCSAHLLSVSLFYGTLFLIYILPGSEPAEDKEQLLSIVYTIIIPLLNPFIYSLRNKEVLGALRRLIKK
How it was run: as §1

UniProt Q8VGT4 = target: T10, UniProt Q8VGT4
T10 sequence (whole entry): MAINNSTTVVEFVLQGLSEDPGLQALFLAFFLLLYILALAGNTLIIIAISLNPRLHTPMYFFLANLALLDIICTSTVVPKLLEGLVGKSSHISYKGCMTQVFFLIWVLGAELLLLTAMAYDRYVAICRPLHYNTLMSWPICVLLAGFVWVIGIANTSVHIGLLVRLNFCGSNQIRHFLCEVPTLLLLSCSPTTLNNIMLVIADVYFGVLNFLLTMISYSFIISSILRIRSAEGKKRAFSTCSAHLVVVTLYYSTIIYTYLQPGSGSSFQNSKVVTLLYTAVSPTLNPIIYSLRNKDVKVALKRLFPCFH
How it was run: as §1

UniProt Q8VGU3 = target: T11, UniProt Q8VGU3
T11 sequence (whole entry): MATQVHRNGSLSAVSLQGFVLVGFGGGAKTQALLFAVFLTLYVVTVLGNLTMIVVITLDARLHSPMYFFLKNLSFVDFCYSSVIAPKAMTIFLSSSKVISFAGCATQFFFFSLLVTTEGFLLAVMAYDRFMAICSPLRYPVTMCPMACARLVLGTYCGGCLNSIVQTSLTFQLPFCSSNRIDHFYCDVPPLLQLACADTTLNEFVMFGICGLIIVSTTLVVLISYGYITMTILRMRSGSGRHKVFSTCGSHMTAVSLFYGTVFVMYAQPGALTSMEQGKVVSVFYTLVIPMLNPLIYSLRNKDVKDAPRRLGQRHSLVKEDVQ
How it was run: as §1

UniProt Q8VGV1 = target: T12, UniProt Q8VGV1
T12 sequence (whole entry): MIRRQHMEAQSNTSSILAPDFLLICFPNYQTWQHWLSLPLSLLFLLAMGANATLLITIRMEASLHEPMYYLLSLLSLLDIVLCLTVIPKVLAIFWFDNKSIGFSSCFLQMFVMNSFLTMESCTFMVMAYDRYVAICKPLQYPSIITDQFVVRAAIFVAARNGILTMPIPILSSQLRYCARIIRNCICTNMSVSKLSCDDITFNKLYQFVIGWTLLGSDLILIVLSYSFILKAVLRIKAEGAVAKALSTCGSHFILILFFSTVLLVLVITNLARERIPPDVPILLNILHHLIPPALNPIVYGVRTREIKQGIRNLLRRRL
How it was run: as §1

UniProt Q8VGV7 = target: T13, UniProt Q8VGV7
T13 sequence (whole entry): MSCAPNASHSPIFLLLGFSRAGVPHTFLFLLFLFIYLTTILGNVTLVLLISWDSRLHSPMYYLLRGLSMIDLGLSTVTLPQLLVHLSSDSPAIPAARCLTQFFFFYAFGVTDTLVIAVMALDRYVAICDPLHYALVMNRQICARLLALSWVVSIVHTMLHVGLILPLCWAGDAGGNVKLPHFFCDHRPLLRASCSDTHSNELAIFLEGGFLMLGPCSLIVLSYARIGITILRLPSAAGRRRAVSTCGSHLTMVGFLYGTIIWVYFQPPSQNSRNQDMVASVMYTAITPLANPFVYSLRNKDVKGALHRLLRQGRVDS
How it was run: as §1

UniProt Q8VGX3 = target: T14, UniProt Q8VGX3
T14 sequence (whole entry): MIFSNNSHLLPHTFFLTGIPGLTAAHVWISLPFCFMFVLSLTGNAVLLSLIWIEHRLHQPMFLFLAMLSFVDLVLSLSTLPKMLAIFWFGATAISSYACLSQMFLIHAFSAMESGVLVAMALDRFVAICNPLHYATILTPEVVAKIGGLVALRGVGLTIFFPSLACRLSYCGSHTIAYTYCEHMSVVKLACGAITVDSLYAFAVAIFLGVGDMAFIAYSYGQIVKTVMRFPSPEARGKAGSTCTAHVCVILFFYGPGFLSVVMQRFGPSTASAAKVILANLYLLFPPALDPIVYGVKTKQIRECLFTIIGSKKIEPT
How it was run: as §1

UniProt Q8VGX5 = target: T15, UniProt Q8VGX5
T15 sequence (whole entry): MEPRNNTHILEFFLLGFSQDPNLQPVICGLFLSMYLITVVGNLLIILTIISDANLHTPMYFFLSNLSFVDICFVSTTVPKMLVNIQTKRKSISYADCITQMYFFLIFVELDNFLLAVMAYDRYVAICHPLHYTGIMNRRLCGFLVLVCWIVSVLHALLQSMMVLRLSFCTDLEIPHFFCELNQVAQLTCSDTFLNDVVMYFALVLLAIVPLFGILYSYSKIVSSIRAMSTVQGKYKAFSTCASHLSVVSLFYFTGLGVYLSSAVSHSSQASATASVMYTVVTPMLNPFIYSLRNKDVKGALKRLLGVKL
How it was run: as §1

UniProt Q8VGX8 = target: T16, UniProt Q8VGX8
T16 sequence (whole entry): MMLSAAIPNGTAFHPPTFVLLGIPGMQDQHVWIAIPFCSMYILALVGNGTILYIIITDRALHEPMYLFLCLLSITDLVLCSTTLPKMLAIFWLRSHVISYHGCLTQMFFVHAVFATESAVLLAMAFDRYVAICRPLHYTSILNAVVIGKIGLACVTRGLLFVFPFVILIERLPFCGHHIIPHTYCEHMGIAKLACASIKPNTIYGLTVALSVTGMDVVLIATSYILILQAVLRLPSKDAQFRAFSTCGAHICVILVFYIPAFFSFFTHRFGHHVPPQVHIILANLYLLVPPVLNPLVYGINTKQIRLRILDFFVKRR
How it was run: as §1

UniProt Q8VGY6 = target: T17, UniProt Q8VGY6
T17 sequence (whole entry): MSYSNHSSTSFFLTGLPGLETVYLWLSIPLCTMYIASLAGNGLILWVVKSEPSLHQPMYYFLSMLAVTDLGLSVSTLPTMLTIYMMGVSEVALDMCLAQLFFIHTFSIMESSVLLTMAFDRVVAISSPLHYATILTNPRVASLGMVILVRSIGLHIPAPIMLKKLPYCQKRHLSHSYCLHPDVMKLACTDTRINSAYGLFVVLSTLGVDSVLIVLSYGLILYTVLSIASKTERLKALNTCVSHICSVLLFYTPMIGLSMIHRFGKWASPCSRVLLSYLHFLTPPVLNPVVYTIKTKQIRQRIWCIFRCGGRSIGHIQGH
How it was run: as §1

UniProt Q8VGZ2 = target: T18, UniProt Q8VGZ2
T18 sequence (whole entry): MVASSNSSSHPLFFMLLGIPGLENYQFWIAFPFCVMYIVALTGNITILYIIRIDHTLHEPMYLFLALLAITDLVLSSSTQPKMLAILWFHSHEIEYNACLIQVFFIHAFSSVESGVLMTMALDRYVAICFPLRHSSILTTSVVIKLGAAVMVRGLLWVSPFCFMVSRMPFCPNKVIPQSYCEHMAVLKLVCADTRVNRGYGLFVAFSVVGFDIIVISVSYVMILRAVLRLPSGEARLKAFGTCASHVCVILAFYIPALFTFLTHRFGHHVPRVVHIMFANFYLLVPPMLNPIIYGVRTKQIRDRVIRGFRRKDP
How it was run: as §1

Measured: odorant receptor agonist call;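 also: active if original authors judged signal statistically different from baseline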

CCCCCC(C)=O
active: UniProt Q8VGJ5
inactive: all other assays above
